Experimental data published in publication doi:10.1101/2025.11.25.690553.
These are yes or no findings as the source states them, for the method shown. Some binding calls cover weakened binding; strength is not graded here.

Biological target: T1, WT CTCF (UniProt P49711)
T1 sequence: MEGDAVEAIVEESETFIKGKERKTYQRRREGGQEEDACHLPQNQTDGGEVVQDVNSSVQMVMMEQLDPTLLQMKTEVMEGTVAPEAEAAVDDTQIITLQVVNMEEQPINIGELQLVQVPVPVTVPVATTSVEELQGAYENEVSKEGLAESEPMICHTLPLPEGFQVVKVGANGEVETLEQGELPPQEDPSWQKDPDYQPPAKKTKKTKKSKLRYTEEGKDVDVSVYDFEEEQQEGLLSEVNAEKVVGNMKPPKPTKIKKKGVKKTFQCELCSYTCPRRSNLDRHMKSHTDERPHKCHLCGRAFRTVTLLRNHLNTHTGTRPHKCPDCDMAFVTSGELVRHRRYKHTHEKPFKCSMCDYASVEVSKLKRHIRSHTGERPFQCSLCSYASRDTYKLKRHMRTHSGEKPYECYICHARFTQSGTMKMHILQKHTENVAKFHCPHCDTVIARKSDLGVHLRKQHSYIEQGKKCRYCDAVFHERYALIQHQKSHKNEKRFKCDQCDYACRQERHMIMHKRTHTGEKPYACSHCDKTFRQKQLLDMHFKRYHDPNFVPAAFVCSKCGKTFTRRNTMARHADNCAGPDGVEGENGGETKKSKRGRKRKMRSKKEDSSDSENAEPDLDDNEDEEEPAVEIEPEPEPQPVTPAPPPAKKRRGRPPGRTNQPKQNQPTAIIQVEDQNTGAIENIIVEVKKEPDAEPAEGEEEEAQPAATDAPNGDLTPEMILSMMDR
Assay: atomic force microscopy; PDS5A position imaged on a symmetric DNA substrate containing 2 CTCF consensus motifs; position as distance from the nearest CTCF binding site; both purified

binding: binds
B1: PDS5A (protein, UniProt Q29RF7 1-1337)
chain: MDFTAQPKPATALCGVVSADGKIAYPPGVKEITDKITTDEMIKRLKMVVKTFMDMDQDSEDEKQQYLPLALHLASEFFLRNPNKDVRLLVACCLADIFRIYAPEAPYTSHDKLKDIFLFITRQLKGLEDTKSPQFNRYFYLLENLAWVKSYNICFELEDCNEIFIQLFRTLFSVINNSHNKKVQMHMLDLMSSIIMEGDGVTQELLDSILINLIPAHKNLNKQSFDLAKVLLKRTVQTIEACIANFFNQVLVLGRSSVSDLSEHVFDLIQELFAIDPHLLLSVMPQLEFKLKSNDGEERLAVVRLLAKLFGSKDSDLATQNRPLWQCFLGRFNDIHVPVRLESVKFASHCLMNHPDLAKDLTEYLKVRSHDPEEAIRHDVIVTIITAAKRDLALVNDQLLGFVRERTLDKRWRVRKEAMMGLAQLYKKYCLHGEAGKEAAEKVSWIKDKLLHIYYQNSIDDKLLVEKIFAQYLVPHNLETEERMKCLYYLYASLDPNAVKALNEMWKCQNMLRSHVRELLDLHKQPTSEANCSAMFGKLMTIAKNLPDPGKAQDFVKKFNQVLGDDEKLRSQLELLISPTCSCKQADICVREIARKLANPKQPTNPFLEMVKFLLERIAPVHIDSEAISALVKLMNKSIEGTADDEEEGVSPDTAIRSGLELLKVLSFTHPTSFHSAETYESLLQCLRMEDDKVAEAAIQIFRNTGHKIETDLPQIRSTLIPILHQKAKRGTPHQAKQAVHCIHAIFTNKEVQLAQIFEPLSRSLNADVPEQLITPLVSLGHISMLAPDQFASPMKSVVANFIVKDLLMNDRSTGEKNGKLWSPDEEVSPEVLAKVQAIKLLVRWLLGMKNNQSKSANSTLRLLSAMLVSEGDLTEQKRISKSDMSRLRLAAGSAIMKLAQEPCYHEIITPEQFQLCALVINDECYQVRQIFAQKLHKALVKLLLPLEYMAIFALCAKDPVKERRAHARQCLLKNISIRREYIKQNPMATEKLLSLLPEYVVPYMIHLLAHDPDFTRSQDVDQLRDIKECLWFMLEVLMTKNENNSHAFMKKMAENIKLTRDAQSPDESKTNEKLYTVCDVALCVINSKSALCNADSPKDPVLPMKFFTQPEKDFCNDKSYISEETRVLLLTGKPKPAGVLGAVNKPLSATGRKPYVRSTGTETGSNINVNSELNPSTGNRSREQSSEAAETGVSENEENPVRIISVTPVKNIDPVKNKEINSDQATQGNISSDRGKKRTVTAAGAENIQQKTDEKVDESGPPAPSKPRRGRRPKSESQGNATKNDDLNKPINKGRKRAAVGQESPGGLEAGNAKAPKLQDLAKKAAPAERQIDLQR
